According to PubChem BioAssay AID2685 (National Center for Advancing Translational Sciences (NCATS), 2010):
The other results are listed elsewhere or left out. These are further read-outs of the screen, such as a control signal, another cell line or another target. No call is given for them. Most of these compounds were active or inconclusive in the main read-out, so they are no random draw. Potencies come from curve fits of mixed quality, noted in brackets.

Assay: qHTS Assay for Lipid Storage Modulators in Drosophila S3 Cells;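 for cell number change: cells counted by Cell Tracker Red CMTPX staining in the red channel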
Conditions: BODIPY lipid droplet fluorescence, 18-24 h; for cell number change: measured here: cell count max response, cells fed with added oleic acid
How it was run: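 Drosophila S3 cells got compounds at several concentrations plus oleic acid (400 uM solution). Laser-scanning cytometry with 488 nm excitation read lipid droplets at 500-530 nm and cells at 575-640 nm. Percent activity was relative to 20 uM Triacsin C.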

[1] = measured here: lipid fluorescence (Fed channel) AC50, cells fed with added oleic acid
[2] = measured here: cell number channel AC50, cells fed with added oleic acid

SMILES	cell number change	AC50 [1]	AC50 [2]
CCCCNC(=O)CCCn1c(=O)c2ccccc2n(CC(=O)NCCC2=CCCCC2)c1=O	-0.802%	16.4 µM [rising, single point]	–
CN(Cc1ccon1)C(=O)C1CCN(C2CCN(CCCc3ccccc3)CC2)CC1	0.867%	–	–
O=C1CSC(=S)N1Cc1cccnc1	13.3%	16.4 µM [rising, partial curve]	–
CCCCn1c(SCC(=O)N2CCN(c3ccccc3)CC2)nc2ccsc2c1=O	-26.9%	–	0.731 µM [falling, full curve, poor fit]
CCOC(=O)c1c(-c2ccccc2)oc2ccc(OCC)cc12	20.2%	8.2 µM [rising, partial curve]	–
CCOC(=O)C1=C(C)N=C2SC(C)C(=O)N2C1c1cccc(F)c1 (stereo not drawn)	-9.06%	–	–
C=CCn1cc(CN2CCC(C(=O)Nc3cccc(-c4cccc(F)c4)c3)CC2)c(C)n1	27.9%	6.51 µM [rising, partial curve, poor fit]	1.84 µM [rising, full curve, poor fit]
Cc1cccc(OCCCn2c(CCNC(=O)C(C)C)nc3ccccc32)c1	-30.9%	29.1 µM [falling, single point]	29.1 µM [falling, single point]
Cc1[nH]c2ccccc2c1C(=O)COC(=O)c1nccnc1N	5.39%	–	–
COc1ccccc1N1CCN(CCCn2c(=S)[nH]c3ccccc3c2=O)CC1	18.1%	–	0.0146 µM [rising, full curve, poor fit]
COc1cc(C2C(C#N)=C(N)Oc3c2c(-c2ccccc2)nn3-c2ccccc2)cc(OC)c1OC (stereo not drawn)	–	7.31 µM [falling, partial curve, poor fit]	6.51 µM [rising, partial curve, poor fit]
O=C(Nc1ccccn1)c1cc2cc([N+](=O)[O-])ccc2s1	23.6%	5.17 µM [rising, partial curve, poor fit]	–
COc1ccccc1NS(=O)(=O)c1cc(NC(=O)CCc2nc3ccccc3c(=O)[nH]2)ccc1C	24.3%	1.64 µM [rising, partial curve]	–
CCOc1ccc(NC(=O)CN(C)C(=O)c2cccc(S(=O)(=O)N3CCCC3)c2)cc1OCC	11.6%	–	–
COC(=O)c1c(C)[nH]c(C(=O)NCc2ccco2)c1C	82.9%	16.4 µM [rising, single point]	29.1 µM [rising, single point]
CCOC(=O)N1CCN(S(=O)(=O)c2ccc3c(c2)CCN3C(=O)CC)CC1	16.5%	–	–
COc1ccc(NC(=O)C2CCCO2)cc1Cl (stereo not drawn)	17.7%	29.1 µM [falling, single point]	–
CC(=O)Cc1nsc(Nc2cccc(C)c2)n1	-62.8%	13 µM [falling, partial curve]	25.9 µM [falling, partial curve, poor fit]
CC(C)(C)OC(=O)N[C@@H](C(=O)OC(C)(C)C)c1ccc(Br)cc1	-40.3%	–	16.4 µM [falling, single point]

SMILES	cell number change	AC50 [1]	AC50 [2]
COCCN(C(=O)C1CC1)c1nnc(-c2cccc(C)c2)s1	0.01%	3.66 µM [rising, full curve]	–
COc1ccc(CNC(=O)CN(c2ccc(C)cc2)S(=O)(=O)c2c(C)nn(C)c2C)cc1	11.8%	29.1 µM [rising, single point]	–
O=C(COC(=O)CNS(=O)(=O)c1c(Cl)cccc1Cl)Nc1ccccc1Sc1ccccc1	50%	–	29.1 µM [rising, single point]
CCOC(=O)C1=C(Cc2ccc(F)cc2)C(=O)c2ccccc2C1=O	-97.1%	20.6 µM [falling, partial curve]	23.1 µM [falling, single point]
COC(=O)CS(=O)(=O)c1cc(Br)cc2c1N(C(C)=O)CC2	–	1.46 µM [rising, partial curve, poor fit]	3.66 µM [rising, partial curve, poor fit]
CC(=O)Nc1ccc(SCC(=O)Nc2cc(C(C)(C)C)nn2-c2ccccc2)cc1	-11.3%	–	–
Cc1cc(OCC(=O)N(Cc2ccco2)c2c(N)n(Cc3ccccc3)c(=O)[nH]c2=O)ccc1Cl	-34.4%	–	0.164 µM [falling, full curve, poor fit]
CCn1ncc([N+](=O)[O-])c1C(=O)NC1CCCCC1	13%	29.1 µM [rising, single point]	–
COc1ccc(OC)c(S(=O)(=O)NCCOC23CC4CC(CC(C4)C2)C3)c1	27.3%	16.4 µM [rising, single point]	–
CC(C)CC(=O)Nc1ccc(S(=O)(=O)N2CCCC2)cc1	5.96%	–	–
COc1ccc(-n2c(SCc3cn4c(C)cccc4n3)nc3ccccc3c2=O)cc1OC	–	0.259 µM [rising, partial curve]	0.206 µM [rising, partial curve]
CC(CN1CCCCC1)C(=O)NN (stereo not drawn)	-25.8%	14.6 µM [falling, partial curve, poor fit]	1.46 µM [falling, full curve, poor fit]
CCOc1ccc(NC(=O)CSc2ncn[nH]2)c([N+](=O)[O-])c1	113%	–	5.8 µM [rising, full curve]
CSc1ccc(C2C(C(=O)c3ccco3)=C(O)C(=O)N2c2nnc(SC)s2)cc1 (stereo not drawn)	–	6.51 µM [falling, single point]	–
CN(CCOc1ccc(Br)cc1)CC(O)c1ccccc1 (stereo not drawn)	–	6.51 µM [rising, single point]	4.11 µM [rising, single point]
Brc1ccc(CSc2ncnc3nc[nH]c23)cc1	-19.2%	32.6 µM [falling, single point]	–
CCOc1ccc(/C=N/NC(=O)c2ccc(F)cc2)cc1CN1CC2CC(C1)c1cccc(=O)n1C2 (stereo not drawn)	10.1%	0.058 µM [rising, single point]	–
O=C(Nc1ccc(-c2csc(Nc3ccccc3)n2)cc1)c1cc([N+](=O)[O-])cc(C(F)(F)F)c1	-53.9%	18.4 µM [falling, single point]	29.1 µM [falling, single point]

Look-ups from above.
Value of `COCCN(C(=O)C1CC1)c1nnc(-c2cccc(C)c2)s1` under cell number change: 0.01%
Value of `CN(CCOc1ccc(Br)cc1)CC(O)c1ccccc1` (stereo not drawn) under AC50 [1]: 6.51 µM [rising, single point]
